Results: the supplement of paper PMC12067093, “Discovery and optimisation of a covalent ligand for TRIM25 and its application to targeted protein ubiquitination” (Chemical Science, 2025)
The list shows a part of the results.

The chains behind the UniProt entries cited, without tags or fusion partners. Where a name states a change or a piece, a line headed by the entry shows the natural chain unless it says otherwise.
UniProt Q99614: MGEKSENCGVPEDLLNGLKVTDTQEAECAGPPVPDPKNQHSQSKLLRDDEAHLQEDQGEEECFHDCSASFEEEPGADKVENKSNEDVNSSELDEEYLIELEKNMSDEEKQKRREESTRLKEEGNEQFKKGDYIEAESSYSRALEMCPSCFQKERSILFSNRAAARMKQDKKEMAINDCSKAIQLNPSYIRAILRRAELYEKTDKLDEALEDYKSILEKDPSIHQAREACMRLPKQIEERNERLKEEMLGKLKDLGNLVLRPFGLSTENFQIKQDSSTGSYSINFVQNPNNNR
UniProt Q15361: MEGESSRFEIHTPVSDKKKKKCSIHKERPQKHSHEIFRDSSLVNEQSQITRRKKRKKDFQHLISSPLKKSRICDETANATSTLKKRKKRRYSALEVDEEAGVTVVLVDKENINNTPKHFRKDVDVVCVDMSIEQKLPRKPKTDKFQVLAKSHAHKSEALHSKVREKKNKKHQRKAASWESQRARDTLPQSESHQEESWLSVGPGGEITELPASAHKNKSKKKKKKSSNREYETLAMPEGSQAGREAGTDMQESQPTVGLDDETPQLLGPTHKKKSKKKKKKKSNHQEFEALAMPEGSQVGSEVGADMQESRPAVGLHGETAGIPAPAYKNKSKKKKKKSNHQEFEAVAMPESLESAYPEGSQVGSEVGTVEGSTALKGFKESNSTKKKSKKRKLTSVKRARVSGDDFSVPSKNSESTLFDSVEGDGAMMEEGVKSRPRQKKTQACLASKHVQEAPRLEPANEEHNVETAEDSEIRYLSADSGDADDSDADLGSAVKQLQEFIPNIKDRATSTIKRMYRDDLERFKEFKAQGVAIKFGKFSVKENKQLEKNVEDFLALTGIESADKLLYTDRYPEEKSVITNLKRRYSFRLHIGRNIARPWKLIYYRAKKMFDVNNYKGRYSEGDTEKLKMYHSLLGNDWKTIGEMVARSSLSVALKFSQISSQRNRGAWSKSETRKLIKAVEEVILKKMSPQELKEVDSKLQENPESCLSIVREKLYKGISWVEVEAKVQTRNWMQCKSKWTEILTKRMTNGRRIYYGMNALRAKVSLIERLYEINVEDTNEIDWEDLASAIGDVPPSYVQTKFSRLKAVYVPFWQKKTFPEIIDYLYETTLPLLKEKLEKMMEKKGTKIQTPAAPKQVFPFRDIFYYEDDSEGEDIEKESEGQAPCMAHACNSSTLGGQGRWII
UniProt Q9H3M7: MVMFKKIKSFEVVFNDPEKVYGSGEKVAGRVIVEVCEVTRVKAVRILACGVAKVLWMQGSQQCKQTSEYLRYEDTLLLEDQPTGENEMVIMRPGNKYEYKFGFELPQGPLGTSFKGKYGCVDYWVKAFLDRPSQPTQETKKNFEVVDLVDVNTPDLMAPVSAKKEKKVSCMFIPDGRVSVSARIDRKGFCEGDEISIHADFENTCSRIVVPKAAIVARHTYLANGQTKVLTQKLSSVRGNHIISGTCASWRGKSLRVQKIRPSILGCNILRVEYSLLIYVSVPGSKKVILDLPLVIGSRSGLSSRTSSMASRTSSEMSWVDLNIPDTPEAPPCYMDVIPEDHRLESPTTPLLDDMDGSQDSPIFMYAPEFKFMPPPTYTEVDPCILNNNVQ
UniProt Q9UNY4: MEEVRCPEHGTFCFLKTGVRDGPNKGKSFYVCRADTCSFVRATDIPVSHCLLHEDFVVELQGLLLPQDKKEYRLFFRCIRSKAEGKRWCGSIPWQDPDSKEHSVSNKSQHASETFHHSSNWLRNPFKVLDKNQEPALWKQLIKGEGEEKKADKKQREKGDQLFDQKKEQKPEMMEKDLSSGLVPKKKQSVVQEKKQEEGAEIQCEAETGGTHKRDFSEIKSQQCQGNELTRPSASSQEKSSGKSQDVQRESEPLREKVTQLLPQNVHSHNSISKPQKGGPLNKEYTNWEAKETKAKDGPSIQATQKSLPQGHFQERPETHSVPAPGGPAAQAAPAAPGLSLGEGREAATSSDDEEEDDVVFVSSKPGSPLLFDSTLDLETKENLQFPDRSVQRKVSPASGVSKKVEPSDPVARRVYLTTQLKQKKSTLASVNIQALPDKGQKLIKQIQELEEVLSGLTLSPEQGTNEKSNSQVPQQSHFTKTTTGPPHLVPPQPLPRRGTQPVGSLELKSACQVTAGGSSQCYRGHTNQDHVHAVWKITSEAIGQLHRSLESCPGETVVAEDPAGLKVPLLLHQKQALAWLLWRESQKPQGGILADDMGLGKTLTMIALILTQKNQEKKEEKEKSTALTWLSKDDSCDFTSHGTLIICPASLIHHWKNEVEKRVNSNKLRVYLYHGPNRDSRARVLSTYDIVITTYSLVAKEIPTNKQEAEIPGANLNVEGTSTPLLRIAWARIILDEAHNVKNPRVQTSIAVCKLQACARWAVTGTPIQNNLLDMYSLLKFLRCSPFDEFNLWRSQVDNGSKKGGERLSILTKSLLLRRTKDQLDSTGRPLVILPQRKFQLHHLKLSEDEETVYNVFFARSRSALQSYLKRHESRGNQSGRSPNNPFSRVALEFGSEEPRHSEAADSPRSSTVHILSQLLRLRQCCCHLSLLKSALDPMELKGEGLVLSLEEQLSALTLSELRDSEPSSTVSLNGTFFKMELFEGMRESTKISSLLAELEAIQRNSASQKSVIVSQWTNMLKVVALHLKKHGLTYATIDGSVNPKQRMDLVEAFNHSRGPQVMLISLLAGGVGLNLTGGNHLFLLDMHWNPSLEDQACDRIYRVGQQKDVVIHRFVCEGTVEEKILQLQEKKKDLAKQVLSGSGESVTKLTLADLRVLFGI
UniProt Q9BSJ2, whole entry, looked up: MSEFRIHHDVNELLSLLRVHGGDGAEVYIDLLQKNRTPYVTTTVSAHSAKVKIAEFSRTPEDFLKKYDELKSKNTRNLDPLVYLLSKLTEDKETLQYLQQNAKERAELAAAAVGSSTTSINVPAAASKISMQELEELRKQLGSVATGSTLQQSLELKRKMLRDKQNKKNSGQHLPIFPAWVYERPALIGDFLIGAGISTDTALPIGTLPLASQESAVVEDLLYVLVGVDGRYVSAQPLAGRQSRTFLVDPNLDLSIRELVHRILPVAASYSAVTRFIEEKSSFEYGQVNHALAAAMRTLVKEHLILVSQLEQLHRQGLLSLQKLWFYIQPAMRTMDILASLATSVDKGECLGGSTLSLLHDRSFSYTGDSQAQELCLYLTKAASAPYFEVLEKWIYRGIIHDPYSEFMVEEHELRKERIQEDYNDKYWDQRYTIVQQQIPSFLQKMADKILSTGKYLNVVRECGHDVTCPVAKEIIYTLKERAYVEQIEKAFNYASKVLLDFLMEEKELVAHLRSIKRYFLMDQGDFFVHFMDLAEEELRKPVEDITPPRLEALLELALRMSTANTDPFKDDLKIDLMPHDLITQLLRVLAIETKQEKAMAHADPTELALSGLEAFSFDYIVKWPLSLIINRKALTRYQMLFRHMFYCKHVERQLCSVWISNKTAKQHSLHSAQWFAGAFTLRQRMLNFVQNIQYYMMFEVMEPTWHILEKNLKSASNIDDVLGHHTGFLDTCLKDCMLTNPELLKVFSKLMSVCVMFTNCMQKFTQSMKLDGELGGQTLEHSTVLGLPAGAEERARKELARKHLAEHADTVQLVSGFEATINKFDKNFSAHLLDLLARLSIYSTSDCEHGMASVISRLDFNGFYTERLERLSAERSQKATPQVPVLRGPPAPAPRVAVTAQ
UniProt Q86VY4: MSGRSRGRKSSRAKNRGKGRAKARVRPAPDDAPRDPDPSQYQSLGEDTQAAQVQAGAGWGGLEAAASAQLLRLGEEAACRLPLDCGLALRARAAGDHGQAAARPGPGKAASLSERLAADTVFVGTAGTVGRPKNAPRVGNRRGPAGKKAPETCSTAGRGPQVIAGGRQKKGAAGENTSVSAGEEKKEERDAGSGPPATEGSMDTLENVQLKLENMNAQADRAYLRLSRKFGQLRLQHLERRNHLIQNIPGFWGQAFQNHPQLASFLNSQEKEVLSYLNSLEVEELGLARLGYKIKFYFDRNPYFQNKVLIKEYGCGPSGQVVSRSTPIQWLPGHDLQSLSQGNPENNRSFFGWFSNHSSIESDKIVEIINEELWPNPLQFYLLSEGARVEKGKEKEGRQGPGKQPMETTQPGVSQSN
UniProt P33981: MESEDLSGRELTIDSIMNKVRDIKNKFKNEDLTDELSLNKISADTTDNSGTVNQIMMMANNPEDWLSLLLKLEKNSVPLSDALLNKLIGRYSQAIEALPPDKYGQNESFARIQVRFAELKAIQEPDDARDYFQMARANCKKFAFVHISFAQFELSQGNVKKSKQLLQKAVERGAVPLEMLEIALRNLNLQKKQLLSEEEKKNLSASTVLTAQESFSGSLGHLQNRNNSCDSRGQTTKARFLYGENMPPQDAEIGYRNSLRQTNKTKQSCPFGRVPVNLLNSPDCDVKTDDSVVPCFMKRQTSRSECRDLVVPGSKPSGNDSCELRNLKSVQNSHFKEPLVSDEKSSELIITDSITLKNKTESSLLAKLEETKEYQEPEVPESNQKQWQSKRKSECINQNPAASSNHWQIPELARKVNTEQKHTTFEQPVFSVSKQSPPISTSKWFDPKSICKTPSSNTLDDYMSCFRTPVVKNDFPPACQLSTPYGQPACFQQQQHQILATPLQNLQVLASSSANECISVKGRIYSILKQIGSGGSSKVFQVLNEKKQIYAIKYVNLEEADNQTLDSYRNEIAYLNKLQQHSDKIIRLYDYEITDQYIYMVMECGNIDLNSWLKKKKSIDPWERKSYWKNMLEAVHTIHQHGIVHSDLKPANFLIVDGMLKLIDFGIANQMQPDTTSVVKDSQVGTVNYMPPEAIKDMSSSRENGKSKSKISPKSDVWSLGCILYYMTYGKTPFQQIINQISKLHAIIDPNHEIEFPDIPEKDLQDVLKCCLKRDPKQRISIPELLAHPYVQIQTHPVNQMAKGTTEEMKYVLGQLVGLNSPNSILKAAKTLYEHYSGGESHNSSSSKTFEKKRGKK
UniProt Q5VYS8: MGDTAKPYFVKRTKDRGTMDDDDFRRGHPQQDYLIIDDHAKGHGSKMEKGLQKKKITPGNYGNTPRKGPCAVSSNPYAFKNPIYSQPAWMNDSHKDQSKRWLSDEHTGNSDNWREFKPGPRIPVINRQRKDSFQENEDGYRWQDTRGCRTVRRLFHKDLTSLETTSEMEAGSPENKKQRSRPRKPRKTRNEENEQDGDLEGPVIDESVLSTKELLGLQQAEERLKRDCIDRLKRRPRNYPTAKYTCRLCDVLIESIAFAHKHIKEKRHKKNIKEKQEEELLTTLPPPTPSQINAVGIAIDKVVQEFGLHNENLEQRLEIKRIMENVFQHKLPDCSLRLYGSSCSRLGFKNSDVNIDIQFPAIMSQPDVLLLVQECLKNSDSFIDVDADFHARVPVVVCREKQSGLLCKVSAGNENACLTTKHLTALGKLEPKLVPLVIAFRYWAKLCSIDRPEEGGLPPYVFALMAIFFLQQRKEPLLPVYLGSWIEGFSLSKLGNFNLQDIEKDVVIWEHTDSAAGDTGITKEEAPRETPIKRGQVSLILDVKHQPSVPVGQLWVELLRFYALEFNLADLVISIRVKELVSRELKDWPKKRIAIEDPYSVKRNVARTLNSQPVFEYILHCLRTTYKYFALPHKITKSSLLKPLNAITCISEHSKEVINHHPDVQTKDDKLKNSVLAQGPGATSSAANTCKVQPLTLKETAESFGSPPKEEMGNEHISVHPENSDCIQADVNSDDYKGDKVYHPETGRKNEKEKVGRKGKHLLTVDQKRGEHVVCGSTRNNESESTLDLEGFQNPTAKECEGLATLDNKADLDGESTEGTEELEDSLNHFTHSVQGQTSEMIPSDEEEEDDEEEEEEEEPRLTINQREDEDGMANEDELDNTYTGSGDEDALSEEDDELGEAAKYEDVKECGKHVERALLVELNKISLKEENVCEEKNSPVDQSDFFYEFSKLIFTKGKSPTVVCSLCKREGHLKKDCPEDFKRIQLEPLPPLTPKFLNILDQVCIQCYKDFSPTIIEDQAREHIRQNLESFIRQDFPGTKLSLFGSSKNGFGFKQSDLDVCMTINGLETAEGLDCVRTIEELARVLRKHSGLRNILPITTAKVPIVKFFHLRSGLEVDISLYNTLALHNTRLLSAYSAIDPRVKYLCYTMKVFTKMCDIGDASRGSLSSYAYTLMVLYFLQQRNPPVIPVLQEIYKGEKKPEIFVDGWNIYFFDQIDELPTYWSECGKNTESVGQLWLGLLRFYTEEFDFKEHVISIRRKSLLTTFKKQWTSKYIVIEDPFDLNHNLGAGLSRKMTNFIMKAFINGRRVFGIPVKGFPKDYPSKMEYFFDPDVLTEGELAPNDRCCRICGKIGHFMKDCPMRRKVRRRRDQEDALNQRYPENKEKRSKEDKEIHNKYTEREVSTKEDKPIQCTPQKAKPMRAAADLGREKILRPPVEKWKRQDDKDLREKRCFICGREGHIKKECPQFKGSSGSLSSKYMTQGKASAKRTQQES
UniProt Q9BRA2: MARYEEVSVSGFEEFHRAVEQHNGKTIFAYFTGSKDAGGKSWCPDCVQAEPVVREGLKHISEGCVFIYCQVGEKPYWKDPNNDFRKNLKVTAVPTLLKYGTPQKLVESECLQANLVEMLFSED

Compound: Cc1cc(ccc1-c1ccccc1)C(=O)N1CCCN(CC1)C(=O)CCl [compound 10]
Assay: probe-labelled cysteine peptide fold change vs DMSO (competition) (log2 fold change); higher = less target engagement (more negative = stronger competition)
Details: THP-1, incubation time: 4 h
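Note: competitive profiling in live THP-1 cells: cysteine peptides tagged with an iodoacetamide desthiobiotin (IA-DTB) probe, intensity after compound treatment relative to DMSO-treated cells.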

Target	probe-labelled cysteine peptide fold change (10 µM)	probe-labelled cysteine peptide fold change (50 µM)
TSPAN14_Q8NG11_200_VVNTQCGYDVR (UniProt Q8NG11)	-0.311	-0.248
TRRAP_Q9Y4A5_2876_EALVQVEVSCPK (UniProt Q9Y4A5)	0.176	0.215
TTLL12_Q14166_418_WGEDNHWICK (UniProt Q14166)	0.0687	0.0032
TTC1_Q99614_146+149_ALEMCPSCFQK (UniProt Q99614)	0.455	-0.31
TRMT2A_Q8IZ69_538_RLLYVSCNPR (UniProt Q8IZ69)	0.11	0.331
TTC17_Q96AE7_506_RADCTESYPR (UniProt Q96AE7)	0.0661	0.13
TSEN54_Q7Z6J9_277_EGVGCSWESGR (UniProt Q7Z6J9)	-0.288	-0.558
TWISTNB_Q3B726_193_LDSDAAGVFCIR (UniProt Q3B726)	0.286	0.333
TUBA1B_P68363_347_RSIQFVDWCPTGFK (UniProt P68363)	0.0304	-0.0451
TTF1_Q15361_445_KTQACLASK (UniProt Q15361)	-0.039	-0.411
TXNIP_Q9H3M7_170_KVSCMFIPDGR (UniProt Q9H3M7)	0.205	-1.47
TTF2_Q9UNY4_204_KQEEGAEIQCEAETGGTHKR (UniProt Q9UNY4)	-0.2	-0.149
TTC7A_Q9ULT0_299_HLAGVLLHSLSEECYWSPLSHPLPEFMGK (UniProt Q9ULT0)	0.125	0.22
TTLL12_Q14166_612_VMQPQILEVNFNPDCER (UniProt Q14166)	0.107	0.385
TUBGCP2_Q9BSJ2_733_SASNIDDVLGHHTGFLDTCLK (UniProt Q9BSJ2)	-0.0324	-0.347
TSPYL5_Q86VY4_153_KAPETCSTAGR (UniProt Q86VY4)	-0.083	-0.28
TTLL12_Q14166_612_RVMQPQILEVNFNPDCER (UniProt Q14166)	0.0816	-0.189
TTC7A_Q9ULT0_77_LLLAEALLEQCLK (UniProt Q9ULT0)	0.0287	0.125
TTK_P33981_322_PSGNDSCELR (UniProt P33981)	-0.155	-0.611
TTC21B_Q7Z4L5_914_EALVHCETDNK (UniProt Q7Z4L5)	-0.107	-0.122
TRUB1_Q8WWH5_269_ELSSCANVLELTR (UniProt Q8WWH5)	-0.038	-0.134

Target	probe-labelled cysteine peptide fold change (10 µM)	probe-labelled cysteine peptide fold change (50 µM)
TSC2_P49815_519_KLATQLLVDLAEGCHTHHFNSLLDIIEK (UniProt P49815)	-0.0466	-0.372
TTF2_Q9UNY4_50_ATDIPVSHCLLHEDFVVELQGLLLPQDK (UniProt Q9UNY4)	0.179	0.417
TROVE2_P10155_520_GMLDMCGFDTGALDVIR (UniProt P10155)	-0.0108	-0.124
TUBB6_Q9BUF5_127_KECEHCDCLQGFQLTHSLGGGTGSGMGTLLISK (UniProt Q9BUF5)	-0.0582	-0.441
TSR1_Q2NL82_126_ISLPEAMQLLQDRDTGTVHLNELGNTQNFMLLCPR (UniProt Q2NL82)	-0.176	-0.563
TSC22D4_Q9Y3Q8_92_WTCVDVYERDLEPHSFGGLLEGIR (UniProt Q9Y3Q8)	0.0479	-0.212
TTC1_Q99614_149_ALEMCPSCFQK (UniProt Q99614)	0.285	-0.0752
TUBA4A_P68366_54_TIGGGDDSFTTFFCETGAGK (UniProt P68366)	-0.0287	-0.345
TTLL12_Q14166_126_ESGLQAAHPNSIFLIDHAWTCR (UniProt Q14166)	0.0995	0.0514
TUT7_Q5VYS8_775_RGEHVVCGSTR (UniProt Q5VYS8)	-0.538	-0.118
TSR3_Q9UJK0_208_YAACGSPEEVLQAEQEFLANAK (UniProt Q9UJK0)	0.0501	0.24
TUT4_Q5TAX3_64_QNDICIEK (UniProt Q5TAX3)	-0.543	-0.0828
TST_Q16762_248_KVDLSQPLIATCR (UniProt Q16762)	-0.0736	-0.892
TXNIP_Q9H3M7_170_VSCMFIPDGR (UniProt Q9H3M7)	0.0303	-1.26
TWF2_Q6IBS0_67_AVLPLLDAQQPCYLLYR (UniProt Q6IBS0)	0.115	0.237
TTLL12_Q14166_528_QVHCEEFIPEFEK (UniProt Q14166)	-0.0693	-0.0645
TSPYL5_Q86VY4_79_LGEEAACR (UniProt Q86VY4)	-0.225	-0.0802
TTC17_Q96AE7_340_HAVLCQQK (UniProt Q96AE7)	-0.156	0.282
TRMT2A_Q8IZ69_486_VNAQDNELSNVEFHCGR (UniProt Q8IZ69)	-0.187	-0.226
TTC37_Q6PGP7_1280_AALLSPGDPAIWAGLMAACHADDK (UniProt Q6PGP7)	-0.081	0.143
TTC4_O95801_63_ENPDLACLQSIIFDEERSPEEQAK (UniProt O95801)	-0.307	-0.087

Target	probe-labelled cysteine peptide fold change (10 µM)	probe-labelled cysteine peptide fold change (50 µM)
TSR1_Q2NL82_618_EELIFHCGFR (UniProt Q2NL82)	0.229	0.23
TXNDC5_Q8NBS9_353_FYAPWCGHCK (UniProt Q8NBS9)	-0.372	-1.61
TTC27_Q6P3X3_514_ETPSLYCLLGDVLGDHSCYDK (UniProt Q6P3X3)	-0.41	-0.676
TUT4_Q5TAX3_394_VITTFLPECSLR (UniProt Q5TAX3)	0.0149	0.0648
TSPYL1_Q9H0U9_375_NQDLICSFFTWFSDHSLPESDK (UniProt Q9H0U9)	0.781	1.06
TSFM_P43897_149_FQLLVQQVALGTMMHCQTLK (UniProt P43897)	-0.0922	-0.0243
TRMT2A_Q8IZ69_538_LLYVSCNPR (UniProt Q8IZ69)	-0.227	-0.248
TTC37_Q6PGP7_1349_ISEAETLCTK (UniProt Q6PGP7)	-0.0846	-0.0793
TUT4_Q5TAX3_458_VPVVVCR (UniProt Q5TAX3)	0.0919	0.153
TRPV2_Q9Y5S1_218_GQGTCFYFGELPLSLAACTK (UniProt Q9Y5S1)	0.0953	0.15
TTC5_Q8N0Z6_29_DCYFETHSVEDAGR (UniProt Q8N0Z6)	0.126	-0.0526
TTC4_O95801_160_GALCHLELK (UniProt O95801)	0.25	-0.00257
TRRAP_Q9Y4A5_620_VANCQTVR (UniProt Q9Y4A5)	-0.0124	-0.406
TTC37_Q6PGP7_705_ALEYFTCALQHR (UniProt Q6PGP7)	-0.0778	-0.0891
TUBB1_Q9H4B7_12_MREIVHIQIGQCGNQIGAK (UniProt Q9H4B7)	0.177	0.649
TWSG1_Q9GZX9_185_ISCESMGASK (UniProt Q9GZX9)	-0.121	-0.0863
TUT7_Q5VYS8_417_VSAGNENACLTTK (UniProt Q5VYS8)	0.162	0.00824
TTC37_Q6PGP7_497_VFCYLGHYYR (UniProt Q6PGP7)	0.0718	0.189
TXNDC17_Q9BRA2_64_HISEGCVFIYCQVGEK (UniProt Q9BRA2)	0.0209	0.13
TTF1_Q15361_708_LQENPESCLSIVR (UniProt Q15361)	-0.276	-0.436
TRPM2_O94759_1250_HLLYPNCPVTR (UniProt O94759)	-0.0942	0.13

Target	probe-labelled cysteine peptide fold change (10 µM)	probe-labelled cysteine peptide fold change (50 µM)
TRRAP_Q9Y4A5_420_NIDDESLPSSIQTMSCK (UniProt Q9Y4A5)	0.467	0.344
TTK_P33981_295_TDDSVVPCFMK (UniProt P33981)	-0.0408	-0.435
TTK_P33981_229_NNSCDSR (UniProt P33981)	0.592	0.842
TRRAP_Q9Y4A5_3849_VNTLVAAANSLDNLCR (UniProt Q9Y4A5)	-0.068	0.0346
TXNDC5_Q8NBS9_128_VDCTAHSDVCSAQGVR (UniProt Q8NBS9)	-0.233	-0.178
TTLL12_Q14166_361_LSQERPGVLLNQFPCENLLTVK (UniProt Q14166)	0.0492	-0.0145
TUT4_Q5TAX3_309_LCLIHIENIQGAHK (UniProt Q5TAX3)	0.198	0.149
TSC2_P49815_1687_GQFNFVHVIVTPLDYECNLVSLQCR (UniProt P49815)	0.0766	0.114
TUBA4A_P68366_4_MRECISVHVGQAGVQMGNACWELYCLEHGIQPDGQMPSDK (UniProt P68366)	-0.0787	-0.408
TTC27_Q6P3X3_549_EFQECVECFER (UniProt Q6P3X3)	0.12	-0.273
TXNDC5_Q8NBS9_247+254_VDCTQHYELCSGNQVR (UniProt Q8NBS9)	-0.39	-0.44
TTC27_Q6P3X3_503_ETPSLYCLLGDVLGDHSCYDK (UniProt Q6P3X3)	-0.0706	-0.311
TTI1_O43156_994_LQLAVLQGLGPLCER (UniProt O43156)	0.0524	0.172
TXLNG_Q9NUQ3_101_NLVSPAYCTQESR (UniProt Q9NUQ3)	-0.418	-0.642
TTC26_A0AVF1_227_ACNHFR	0.0383	-0.0175
TUBGCP2_Q9BSJ2_656_QLCSVWISNK (UniProt Q9BSJ2)	0.232	0.238
TUBA1C_Q9BQE3_376_AVCMLSNTTAVAEAWAR (UniProt Q9BQE3)	-0.038	-0.00181
TSC2_P49815_1587_DCQPDK (UniProt P49815)	0.0812	-0.342

An excerpt of these results, with bars between the fields.
Target | probe-labelled cysteine peptide fold change (10 µM) | probe-labelled cysteine peptide fold change (50 µM)
TTK_P33981_295_TDDSVVPCFMK (UniProt P33981) | -0.0408 | -0.435
TTK_P33981_229_NNSCDSR (UniProt P33981) | 0.592 | 0.842
TRRAP_Q9Y4A5_3849_VNTLVAAANSLDNLCR (UniProt Q9Y4A5) | -0.068 | 0.0346
TXNDC5_Q8NBS9_128_VDCTAHSDVCSAQGVR (UniProt Q8NBS9) | -0.233 | -0.178
TTLL12_Q14166_361_LSQERPGVLLNQFPCENLLTVK (UniProt Q14166) | 0.0492 | -0.0145
